# Source: patent US8105431B2, “Subphthalocyanine derivative having phosphorus derivative as axially substituted group, method for manufacturing the same and optical film using the same” (Orient Chemical Industries, Ltd., priority 2008, dated 2012)
# Some of these results come from one statement about several compounds together.
# Test: Solubility to methyl ethyl ketone
# Format: physicochemical
# Conditions: compared with the halo boron intermediate compounds
row,Substance,solubility (in words)
1,(i-C5H11S)3SubPcBOPOPh2 [Compound 11],maintain a high solubility
2,(t-Bu)3SubPcBOPO(OBu)2 [Compound 7],maintain a high solubility
3,(t-Bu)3SubPcBOPOPh2 [Compound 5],maintain a high solubility
